# Assay results reported in PubChem BioAssay AID2685 (National Center for Advancing Translational Sciences (NCATS), 2010).
# The list shows a part of the results. The main result of the screen is listed elsewhere. These columns were measured beside it and carry no call. Most of these compounds were active or inconclusive in the main read-out, so they are no random draw. Potencies come from curve fits of mixed quality, noted in brackets.
# Assay: qHTS Assay for Lipid Storage Modulators in Drosophila S3 Cells;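 for cell number change: cells counted by Cell Tracker Red CMTPX staining in the red channel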
# Details: BODIPY lipid droplet fluorescence, 18-24 h; for cell number change: measured here: cell count max response, cells fed with added oleic acid
# In short: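 Drosophila S3 cells got compounds at several concentrations plus oleic acid (400 uM solution). Laser-scanning cytometry with 488 nm excitation read lipid droplets at 500-530 nm and cells at 575-640 nm. Percent activity was relative to 20 uM Triacsin C.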
# [1] = measured here: cell number channel AC50, cells fed with added oleic acid
# [2] = measured here: lipid fluorescence (Fed channel) AC50, cells fed with added oleic acid
SMILES,AC50 [1],cell number change [%],AC50 [2]
COc1ccc(NC(=S)N2CCC(c3nc4ccccc4[nH]3)CC2)c(OC)c1,"2.31 µM [rising, partial curve]",–,–
CCCCC(=O)Nc1ccccc1CC,"2.59 µM [rising, single point]",24.1,–
Cc1cc(C)n(-c2nc(NCCCN(C)C)c3c4c(sc3n2)COC(C)(C)C4)n1,–,18.1,–
O=C(CN1CCc2ccccc2C1)Nc1ccc(OC(F)(F)F)cc1,–,-22.6,"29.1 µM [falling, single point]"
Cc1ccc(OCCC(=O)O)cc1,–,-2.44,"0.0058 µM [falling, full curve, poor fit]"
CSc1nc(-c2ccc(Cl)cc2Cl)[nH]c(=O)c1C#N,–,–,"16.4 µM [falling, partial curve, poor fit]"
O=c1c2ccccc2c(C=NCCc2ccccc2)c(O)n1Cc1ccccc1,–,69.7,"18.4 µM [rising, partial curve]"
O=C(N/C(=C\c1ccc(Cl)cc1)C(=O)N1CCOCC1)c1ccco1,–,15.1,"29.1 µM [falling, single point]"
C=CCN(C(=O)c1csnn1)C(C(=O)NC1CCCC1)c1ccc(F)cc1 (configuration not stated),–,-2.56,–
Cc1ccc(O)c(C(CC(=O)NCc2ccco2)c2ccccc2)c1 (configuration not stated),–,-16.1,"6.51 µM [falling, single point]"
COc1ccc(/C=C/C(=O)Nc2sc(Cc3ccccc3)c(C)c2C(N)=O)cc1,–,13.2,"3.66 µM [rising, single point]"
COC(=O)c1nn(-c2ccccc2)c(=O)cc1O,–,-24.1,–
O=C(CSc1ccccc1C(=O)O)Nc1cccc(C(=O)O)c1,–,5.15,"18.4 µM [falling, single point]"
COc1cccc(Sc2cc(N3CCOCC3)nc(-c3ccccc3)n2)c1,"8.2 µM [rising, partial curve]",40,"0.731 µM [rising, full curve, poor fit]"
CCOc1ccc(NC(=O)c2ccc(F)c(S(=O)(=O)N3CCN(c4ccccn4)CC3)c2)cc1,–,-26.3,"11.6 µM [falling, partial curve, poor fit]"
O=C(C1CCC(CNc2nc(=S)[nH]c3ccccc23)CC1)N1CCN(c2ccccn2)CC1 (configuration not stated),"29.1 µM [falling, single point]",-34.3,"16.4 µM [falling, single point]"
COc1cccc(NC(=O)CN(C)CC(=O)NCc2ccco2)c1,–,-7.23,"0.082 µM [rising, full curve, poor fit]"
O=C(O)C1NCCc2ccccc21 (configuration not stated),"4.61 µM [falling, partial curve, poor fit]",-19.6,"10.3 µM [falling, partial curve]"
Cn1cnnc1SCC(=O)Nc1ccc(N2CCCCC2)cc1,"29.1 µM [rising, single point]",38.5,"29.1 µM [rising, single point]"

# Looked up above.
# cell number change [%] with O=c1c2ccccc2c(C=NCCc2ccccc2)c(O)n1Cc1ccccc1 is entered as 69.7
# AC50 [2] with O=C(CSc1ccccc1C(=O)O)Nc1cccc(C(=O)O)c1 is entered as 18.4 µM [falling, single point]

# Carrying on:

SMILES,AC50 [1],cell number change [%],AC50 [2]
CCN1CCc2c(sc(NC(=O)c3ccc(S(=O)(=O)N4CCOCC4)cc3)c2C(=O)OC)C1,"6.51 µM [falling, full curve, poor fit]",-38.1,–
COc1ccc(C(=O)N2CCC(C(=O)Nc3ccc4c(c3)OCO4)CC2)cc1,–,24,–
O=C(CN1C(=O)C(=O)N(C2CCCC2)C1=O)NCCc1ccc(Cl)cc1Cl,–,–,"0.164 µM [falling, full curve, poor fit]"
CCCCOc1ccc(OCCCC)c2c1NC1(N2)C(=O)N(C(C)=O)c2ccccc21,"20.6 µM [rising, partial curve]",115,"29.1 µM [rising, single point]"
COc1ccc(C(=O)NC2(C(F)(F)F)NC(=O)N(CCCc3ccccc3)C2=O)c(OC)c1OC (configuration not stated),"11.6 µM [falling, partial curve]",-32.7,"18.4 µM [falling, single point]"
Nc1nc(NCCOCCO)nc(NCc2ccccc2)c1[N+](=O)[O-],"2.91 µM [rising, full curve]",45,–
Cc1ccc(-c2noc(CSc3nnc(Cc4cccs4)n3-c3ccccc3)n2)cc1,–,–,"0.651 µM [rising, full curve]"
Cc1cc2c(=O)n(C)c(SCC(=O)c3cc4ccccc4o3)nc2s1,–,4.03,–
Cc1ccccc1N1CCN(C(=O)C2CCC(=O)N(C3CCCC3)C2)CC1 (configuration not stated),–,-2.45,"0.0517 µM [rising, full curve, poor fit]"
O=C(NCc1ccccc1)c1csc2c1CCCCC2,"6.51 µM [falling, single point]",–,–
CN1CCc2c(sc3nc(SCC(=O)N4CCOCC4)nc(N)c23)C1,–,-1.24,–
Cc1cc(OCC(=O)NC2CCN(Cc3ccccc3)CC2)c2c(C)c(C)c(=O)oc2c1,–,10.8,"1.84 µM [rising, partial curve]"
O=C(Nc1ccc(Br)cc1)c1cccc(N2C(=O)C3C4C=CC(C4)C3C2=O)c1 (configuration not stated),–,-25.7,"16.4 µM [falling, single point]"
CC1Cc2ccccc2N1C(=O)CSc1ncc(-c2ccc(F)cc2)n1C (configuration not stated),–,9.67,"2.59 µM [rising, single point]"
CC1(C)CC2(CC(c3ccccc3F)c3ccc(O)c(O)c3O2)NC(=S)N1 (configuration not stated),–,7.95,"23.1 µM [rising, partial curve, poor fit]"
S=c1nc(-c2ccccc2Br)[nH][nH]1,"0.00517 µM [falling, full curve, poor fit]",-31.8,"0.00461 µM [falling, full curve, poor fit]"
Cc1cccc(C)c1NC(=O)C1CCN(C(=O)c2cccs2)CC1,"0.00411 µM [rising, full curve, poor fit]",20,"8.2 µM [rising, partial curve]"
O=C(O)c1cc(S(=O)(=O)N(Cc2ccccc2)c2ccc(Cl)cc2)ccc1Cl,"0.291 µM [rising, partial curve, poor fit]",2.78,"6.51 µM [rising, single point]"
